Assay results published in paper PMC12316392.
No constants are given. Whether binding was seen depends on the method and setting. In cells and extracts the contact can be indirect. Some entries that bind do so weakly or less than the wild type. Tags and fused reporters may be left off the sequences shown.

Chains of the proteins cited; added tags and fusions are not shown.
UniProt O43524: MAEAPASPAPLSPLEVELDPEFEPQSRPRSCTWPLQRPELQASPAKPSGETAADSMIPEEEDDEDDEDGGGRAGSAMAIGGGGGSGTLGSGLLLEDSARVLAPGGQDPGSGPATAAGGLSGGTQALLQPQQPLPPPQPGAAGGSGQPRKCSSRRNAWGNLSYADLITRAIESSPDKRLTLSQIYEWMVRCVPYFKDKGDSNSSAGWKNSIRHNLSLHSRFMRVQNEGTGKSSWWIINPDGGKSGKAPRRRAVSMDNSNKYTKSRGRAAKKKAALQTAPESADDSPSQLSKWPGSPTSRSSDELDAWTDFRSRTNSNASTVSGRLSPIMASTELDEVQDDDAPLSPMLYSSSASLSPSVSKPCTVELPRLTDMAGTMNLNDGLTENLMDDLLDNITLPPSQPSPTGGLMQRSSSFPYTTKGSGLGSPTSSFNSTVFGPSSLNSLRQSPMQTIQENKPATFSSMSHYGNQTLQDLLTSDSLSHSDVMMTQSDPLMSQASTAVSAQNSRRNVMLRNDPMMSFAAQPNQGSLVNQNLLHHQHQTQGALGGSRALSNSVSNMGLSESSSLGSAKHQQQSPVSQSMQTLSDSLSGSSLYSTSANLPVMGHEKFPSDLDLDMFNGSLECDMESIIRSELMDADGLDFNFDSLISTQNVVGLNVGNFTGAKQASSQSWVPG
UniProt Q15648: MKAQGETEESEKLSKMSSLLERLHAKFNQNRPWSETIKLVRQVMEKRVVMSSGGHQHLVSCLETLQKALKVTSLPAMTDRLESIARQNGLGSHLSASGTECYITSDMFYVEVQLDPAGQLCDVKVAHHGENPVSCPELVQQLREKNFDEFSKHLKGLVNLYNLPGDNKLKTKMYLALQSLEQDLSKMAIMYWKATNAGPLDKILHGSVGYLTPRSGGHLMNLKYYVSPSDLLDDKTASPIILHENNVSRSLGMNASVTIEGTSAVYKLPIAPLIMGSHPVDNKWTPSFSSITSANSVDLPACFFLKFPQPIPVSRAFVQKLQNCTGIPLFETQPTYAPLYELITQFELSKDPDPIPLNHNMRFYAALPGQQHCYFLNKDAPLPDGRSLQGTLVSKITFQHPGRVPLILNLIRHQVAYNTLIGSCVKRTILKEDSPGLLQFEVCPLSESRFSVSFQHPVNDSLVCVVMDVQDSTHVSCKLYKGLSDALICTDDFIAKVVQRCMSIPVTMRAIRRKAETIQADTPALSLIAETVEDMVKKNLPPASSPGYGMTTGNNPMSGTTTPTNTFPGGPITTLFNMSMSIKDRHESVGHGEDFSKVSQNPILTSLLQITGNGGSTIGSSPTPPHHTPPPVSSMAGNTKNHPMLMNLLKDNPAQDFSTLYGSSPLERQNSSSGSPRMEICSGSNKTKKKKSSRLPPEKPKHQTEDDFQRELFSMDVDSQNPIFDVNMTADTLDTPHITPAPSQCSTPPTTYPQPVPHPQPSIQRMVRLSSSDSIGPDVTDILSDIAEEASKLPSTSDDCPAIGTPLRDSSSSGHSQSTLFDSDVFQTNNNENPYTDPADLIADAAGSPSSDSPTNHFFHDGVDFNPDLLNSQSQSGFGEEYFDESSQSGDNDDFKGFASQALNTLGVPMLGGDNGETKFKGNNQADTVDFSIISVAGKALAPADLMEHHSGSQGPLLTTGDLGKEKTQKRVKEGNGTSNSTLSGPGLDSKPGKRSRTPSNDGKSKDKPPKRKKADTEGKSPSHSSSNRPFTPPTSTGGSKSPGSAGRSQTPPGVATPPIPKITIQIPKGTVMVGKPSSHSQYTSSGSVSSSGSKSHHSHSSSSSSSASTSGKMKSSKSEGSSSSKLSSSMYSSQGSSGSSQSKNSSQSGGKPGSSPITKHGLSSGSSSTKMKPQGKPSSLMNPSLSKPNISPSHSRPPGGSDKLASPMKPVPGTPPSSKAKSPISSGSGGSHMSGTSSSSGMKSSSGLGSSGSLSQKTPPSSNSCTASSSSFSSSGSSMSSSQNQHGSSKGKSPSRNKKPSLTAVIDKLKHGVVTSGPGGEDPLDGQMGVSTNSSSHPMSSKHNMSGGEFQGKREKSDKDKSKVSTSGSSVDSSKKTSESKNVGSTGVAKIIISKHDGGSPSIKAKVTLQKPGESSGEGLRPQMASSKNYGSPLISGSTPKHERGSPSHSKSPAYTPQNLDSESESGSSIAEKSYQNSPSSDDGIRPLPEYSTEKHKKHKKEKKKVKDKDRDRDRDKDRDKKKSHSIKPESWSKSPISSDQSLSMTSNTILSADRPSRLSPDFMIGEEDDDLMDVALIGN
UniProt P49336: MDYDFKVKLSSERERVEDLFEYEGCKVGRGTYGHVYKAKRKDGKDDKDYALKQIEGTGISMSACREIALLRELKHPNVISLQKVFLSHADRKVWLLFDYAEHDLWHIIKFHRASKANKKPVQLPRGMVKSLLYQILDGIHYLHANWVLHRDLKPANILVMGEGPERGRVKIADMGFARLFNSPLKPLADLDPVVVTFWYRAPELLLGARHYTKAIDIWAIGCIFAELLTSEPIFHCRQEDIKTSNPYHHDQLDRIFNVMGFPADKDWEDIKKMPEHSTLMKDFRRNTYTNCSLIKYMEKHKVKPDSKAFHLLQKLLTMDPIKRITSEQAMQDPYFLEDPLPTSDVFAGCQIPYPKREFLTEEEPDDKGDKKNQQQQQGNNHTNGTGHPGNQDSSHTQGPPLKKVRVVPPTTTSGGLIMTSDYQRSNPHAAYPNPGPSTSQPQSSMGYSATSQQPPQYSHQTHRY

T1: endogenous HA-Med23 (HA-Med23-KI HEK293T cells) (human (endogenous in HEK293T)) (UniProt Q9ULK4)
T1 sequence: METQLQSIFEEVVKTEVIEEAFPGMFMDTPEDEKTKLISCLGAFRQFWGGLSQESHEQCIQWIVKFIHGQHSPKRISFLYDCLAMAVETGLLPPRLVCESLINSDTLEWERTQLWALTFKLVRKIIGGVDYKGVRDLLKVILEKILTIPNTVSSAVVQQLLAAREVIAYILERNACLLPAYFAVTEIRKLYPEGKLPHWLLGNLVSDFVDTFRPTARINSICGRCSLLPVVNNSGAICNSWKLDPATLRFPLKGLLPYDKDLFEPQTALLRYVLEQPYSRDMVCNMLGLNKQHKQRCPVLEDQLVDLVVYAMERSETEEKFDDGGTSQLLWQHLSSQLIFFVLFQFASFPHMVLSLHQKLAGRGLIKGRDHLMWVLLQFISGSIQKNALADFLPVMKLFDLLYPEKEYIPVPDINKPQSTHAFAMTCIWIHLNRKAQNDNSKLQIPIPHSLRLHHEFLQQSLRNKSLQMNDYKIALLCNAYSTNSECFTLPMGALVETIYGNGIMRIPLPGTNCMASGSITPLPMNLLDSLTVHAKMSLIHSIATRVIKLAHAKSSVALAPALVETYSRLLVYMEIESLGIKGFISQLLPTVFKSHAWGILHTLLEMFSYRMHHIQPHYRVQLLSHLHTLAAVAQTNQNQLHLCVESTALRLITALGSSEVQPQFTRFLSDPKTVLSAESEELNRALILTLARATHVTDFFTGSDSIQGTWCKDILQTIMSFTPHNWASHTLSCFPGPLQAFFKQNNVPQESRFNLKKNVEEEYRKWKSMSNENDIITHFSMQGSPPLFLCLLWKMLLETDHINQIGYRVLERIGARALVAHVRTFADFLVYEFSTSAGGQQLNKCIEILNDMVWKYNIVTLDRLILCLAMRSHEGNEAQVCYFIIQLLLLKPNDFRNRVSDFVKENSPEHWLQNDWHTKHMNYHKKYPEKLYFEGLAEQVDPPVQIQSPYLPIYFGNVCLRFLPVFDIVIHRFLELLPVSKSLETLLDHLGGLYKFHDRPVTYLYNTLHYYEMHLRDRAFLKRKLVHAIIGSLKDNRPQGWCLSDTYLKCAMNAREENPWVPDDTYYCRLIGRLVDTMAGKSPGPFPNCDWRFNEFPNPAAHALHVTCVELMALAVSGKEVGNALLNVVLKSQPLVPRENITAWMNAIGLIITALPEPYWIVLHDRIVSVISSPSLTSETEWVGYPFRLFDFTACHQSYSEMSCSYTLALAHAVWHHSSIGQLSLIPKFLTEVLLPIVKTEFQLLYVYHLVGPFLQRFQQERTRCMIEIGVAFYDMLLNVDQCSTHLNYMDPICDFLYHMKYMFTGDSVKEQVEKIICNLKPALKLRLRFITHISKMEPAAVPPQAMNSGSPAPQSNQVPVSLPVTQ

B1: Mediator subunit Med16 (protein, UniProt Q9Y2X0 1-877)
chain: MCDLRRPAAGGMMDLAYVCEWEKWSKSTHCPSVPLACAWSCRNLIAFTMDLRSDDQDLTRMIHILDTEHPWDLHSIPSEHHEAITCLEWDQSGSRLLSADADGQIKCWSMADHLANSWESSVGSLVEGDPIVALSWLHNGVKLALHVEKSGASSFGEKFSRVKFSPSLTLFGGKPMEGWIAVTVSGLVTVSLLKPSGQVLTSTESLCRLRGRVALADIAFTGGGNIVVATADGSSASPVQFYKVCVSVVSEKCRIDTEILPSLFMRCTTDLNRKDKFPAITHLKFLARDMSEQVLLCASSQTSSIVECWSLRKEGLPVNNIFQQISPVVGDKQPTILKWRILSATNDLDRVSAVALPKLPISLTNTDLKVASDTQFYPGLGLALAFHDGSVHIVHRLSLQTMAVFYSSAAPRPVDEPAMKRPRTAGPAVHLKAMQLSWTSLALVGIDSHGKLSVLRLSPSMGHPLEVGLALRHLLFLLEYCMVTGYDWWDILLHVQPSMVQSLVEKLHEEYTRQTAALQQVLSTRILAMKASLCKLSPCTVTRVCDYHTKLFLIAISSTLKSLLRPHFLNTPDKSPGDRLTEICTKITDVDIDKVMINLKTEEFVLDMNTLQALQQLLQWVGDFVLYLLASLPNQGSLLRPGHSFLRDGTSLGMLRELMVVIRIWGLLKPSCLPVYTATSDTQDSMSLLFRLLTKLWICCRDEGPASEPDEALVDECCLLPSQLLIPSLDWLPASDGLVSRLQPKQPLRLQFGRAPTLPGSAATLQLDGLARAPGQPKIDHLRRLHLGACPTEECKACTRCGCVTMLKSPNRTTAVKQWEQRWIKNCLAVEGRGPDACVTSRASEEAPAFVQLGPQSTHHSPRTPRSLDHLHPEDRP
B2: Mediator subunit Med24 (protein, UniProt O75448 1-989)
chain: MKVVNLKQAILQAWKERWSDYQWAINMKKFFPKGATWDILNLADALLEQAMIGPSPNPLILSYLKYAISSQMVSYSSVLTAISKFDDFSRDLCVQALLDIMDMFCDRLSCHGKAEECIGLCRALLSALHWLLRCTAASAERLREGLEAGTPAAGEKQLAMCLQRLEKTLSSTKNRALLHIAKLEEASSWTAIEHSLLKLGEILANLSNPQLRSQAEQCGTLIRSIPTMLSVHAEQMHKTGFPTVHAVILLEGTMNLTGETQSLVEQLTMVKRMQHIPTPLFVLEIWKACFVGLIESPEGTEELKWTAFTFLKIPQVLVKLKKYSHGDKDFTEDVNCAFEFLLKLTPLLDKADQRCNCDCTNFLLQECGKQGLLSEASVNNLMAKRKADREHAPQQKSGENANIQPNIQLILRAEPTVTNILKTMDADHSKSPEGLLGVLGHMLSGKSLDLLLAAAAATGKLKSFARKFINLNEFTTYGSEESTKPASVRALLFDISFLMLCHVAQTYGSEVILSESRTGAEVPFFETWMQTCMPEEGKILNPDHPCFRPDSTKVESLVALLNNSSEMKLVQMKWHEACLSISAAILEILNAWENGVLAFESIQKITDNIKGKVCSLAVCAVAWLVAHVRMLGLDEREKSLQMIRQLAGPLFSENTLQFYNERVVIMNSILERMCADVLQQTATQIKFPSTGVDTMPYWNLLPPKRPIKEVLTDIFAKVLEKGWVDSRSIHIFDTLLHMGGVYWFCNNLIKELLKETRKEHTLRAVELLYSIFCLDMQQVTLVLLGHILPGLLTDSSKWHSLMDPPGTALAKLAVWCALSSYSSHKGQASTRQKKRHREDIEDYISLFPLDDVQPSKLMRLLSSNEDDANILSSPTDRSMSSSLSASQLHTVNMRDPLNRVLANLFLLISSILGSRTAGPHTQFVQWFMEECVDCLEQGGRGSVLQFMPFTTVSELVKVSAMSSPKVVLAITDLSLPLGRQVAAKAIAAL

biological target: T1, endogenous HA-Med23 (HA-Med23-KI HEK293T cells) (human (endogenous in HEK293T)); assay: co-IP; lysates of HA-Med23-KI HEK293T cells immunoprecipitated with the HA antibody; immunoblot of endogenous partners

binding, binds:
endogenous Foxo3 (forkhead box O3) (from UniProt O43524 1-673)
Mediator subunit Med1 (from UniProt Q15648 1-1581)
Mediator subunit CDK8 (from UniProt P49336 1-464)
B1
B2

biological target: T1, endogenous HA-Med23 (HA-Med23-KI HEK293T cells) (human (endogenous in HEK293T)); assay: cross-linking + co-IP; HA-Med23-KI HEK293T cells treated with DSP (20uM); lysates immunoprecipitated with the HA antibody; immunoblot of endogenous Foxo3

binding, binds:
endogenous Foxo3 (forkhead box O3) (from UniProt O43524 1-673)
